The other results are listed elsewhere or left out.
Legend:
Assay in all cases: log2 fold change, soluble protein after heating vs DMSO (PISA); higher = thermal stabilisation; K562 lysate, 10 uM; active = over 0.2 and 3.5 SD of the protein, either way, in both replicates (recomputed)
alvocidib = compound: CN1CC[C@H](c2c(O)cc(O)c3c(=O)cc(-c4ccccc4Cl)oc23)[C@H](O)C1 [alvocidib]
How it was run: (§1)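 Values give the log-two fold change in thermal stability against solvent controls, from duplicates. Crude K562 extract at 1 mg/mL protein, made by dounce homogenisation in PBS pH 7.4 with 1 mM MgCl2, was treated with 10 μM compound for 30 min. After 3 min heating across 48°C-58°C, aliquots were pooled, adjusted to 0.5% NP-40 at 4°C and centrifuged at 21,000xg for 90 min. The supernatant was measured by TMTpro 16plex LC-MS/MS with channel sums equalised.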

Sequences of proteins named here, by UniProt entry; tags and fusion partners are left off. A change or cut given only in a name is not applied to a line headed by its entry.
UniProt P07711: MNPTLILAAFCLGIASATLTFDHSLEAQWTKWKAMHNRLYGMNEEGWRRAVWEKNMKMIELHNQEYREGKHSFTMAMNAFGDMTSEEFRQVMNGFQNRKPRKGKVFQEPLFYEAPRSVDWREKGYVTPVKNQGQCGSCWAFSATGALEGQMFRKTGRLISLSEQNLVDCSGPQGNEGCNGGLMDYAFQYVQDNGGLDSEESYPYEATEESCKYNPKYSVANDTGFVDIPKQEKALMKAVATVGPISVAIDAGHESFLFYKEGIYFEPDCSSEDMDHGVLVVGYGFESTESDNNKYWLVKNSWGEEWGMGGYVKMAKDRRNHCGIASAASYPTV
UniProt P08574: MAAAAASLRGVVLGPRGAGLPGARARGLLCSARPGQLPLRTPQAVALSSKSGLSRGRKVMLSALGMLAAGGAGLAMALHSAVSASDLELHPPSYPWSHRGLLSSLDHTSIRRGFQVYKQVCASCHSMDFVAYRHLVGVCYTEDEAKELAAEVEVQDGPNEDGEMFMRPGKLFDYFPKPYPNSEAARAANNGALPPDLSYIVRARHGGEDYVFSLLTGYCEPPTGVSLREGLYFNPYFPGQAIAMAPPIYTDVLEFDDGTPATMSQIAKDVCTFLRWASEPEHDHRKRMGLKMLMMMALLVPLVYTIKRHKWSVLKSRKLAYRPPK
UniProt P09668: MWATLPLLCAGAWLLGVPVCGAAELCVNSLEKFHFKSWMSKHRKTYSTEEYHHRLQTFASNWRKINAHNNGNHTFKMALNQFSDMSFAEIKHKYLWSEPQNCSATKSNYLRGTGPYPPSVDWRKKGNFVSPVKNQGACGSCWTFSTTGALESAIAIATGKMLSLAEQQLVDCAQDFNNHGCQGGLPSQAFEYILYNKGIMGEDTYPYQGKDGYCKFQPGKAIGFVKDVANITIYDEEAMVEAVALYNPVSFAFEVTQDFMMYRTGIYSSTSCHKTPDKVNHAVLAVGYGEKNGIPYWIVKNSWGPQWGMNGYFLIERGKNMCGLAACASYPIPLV
UniProt Q93034, whole entry, looked up: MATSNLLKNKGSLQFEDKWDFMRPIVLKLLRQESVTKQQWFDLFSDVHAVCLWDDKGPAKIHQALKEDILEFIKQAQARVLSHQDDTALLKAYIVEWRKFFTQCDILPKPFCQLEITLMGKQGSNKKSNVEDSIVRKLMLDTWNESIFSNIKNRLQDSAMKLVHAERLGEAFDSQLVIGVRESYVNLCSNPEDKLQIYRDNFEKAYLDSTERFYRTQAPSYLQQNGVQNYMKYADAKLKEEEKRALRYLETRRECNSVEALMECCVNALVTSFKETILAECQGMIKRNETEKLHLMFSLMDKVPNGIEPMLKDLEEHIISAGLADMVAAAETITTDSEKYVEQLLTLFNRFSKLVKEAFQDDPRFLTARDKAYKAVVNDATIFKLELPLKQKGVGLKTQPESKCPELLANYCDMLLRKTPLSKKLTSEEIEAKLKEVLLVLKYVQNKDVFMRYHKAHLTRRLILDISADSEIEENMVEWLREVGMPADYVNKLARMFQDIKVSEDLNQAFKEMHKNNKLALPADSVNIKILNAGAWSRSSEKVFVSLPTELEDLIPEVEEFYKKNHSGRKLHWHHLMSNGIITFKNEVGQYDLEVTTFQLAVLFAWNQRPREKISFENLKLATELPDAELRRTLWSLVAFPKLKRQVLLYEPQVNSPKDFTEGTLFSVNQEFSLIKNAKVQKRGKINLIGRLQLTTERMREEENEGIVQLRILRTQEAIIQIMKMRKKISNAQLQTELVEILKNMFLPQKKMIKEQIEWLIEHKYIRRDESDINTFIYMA
UniProt O60888: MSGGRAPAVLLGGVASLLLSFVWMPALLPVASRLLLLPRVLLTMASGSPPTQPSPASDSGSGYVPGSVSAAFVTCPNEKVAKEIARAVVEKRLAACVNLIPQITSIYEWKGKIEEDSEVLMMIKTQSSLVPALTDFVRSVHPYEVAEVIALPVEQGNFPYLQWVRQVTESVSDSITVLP
UniProt P55060: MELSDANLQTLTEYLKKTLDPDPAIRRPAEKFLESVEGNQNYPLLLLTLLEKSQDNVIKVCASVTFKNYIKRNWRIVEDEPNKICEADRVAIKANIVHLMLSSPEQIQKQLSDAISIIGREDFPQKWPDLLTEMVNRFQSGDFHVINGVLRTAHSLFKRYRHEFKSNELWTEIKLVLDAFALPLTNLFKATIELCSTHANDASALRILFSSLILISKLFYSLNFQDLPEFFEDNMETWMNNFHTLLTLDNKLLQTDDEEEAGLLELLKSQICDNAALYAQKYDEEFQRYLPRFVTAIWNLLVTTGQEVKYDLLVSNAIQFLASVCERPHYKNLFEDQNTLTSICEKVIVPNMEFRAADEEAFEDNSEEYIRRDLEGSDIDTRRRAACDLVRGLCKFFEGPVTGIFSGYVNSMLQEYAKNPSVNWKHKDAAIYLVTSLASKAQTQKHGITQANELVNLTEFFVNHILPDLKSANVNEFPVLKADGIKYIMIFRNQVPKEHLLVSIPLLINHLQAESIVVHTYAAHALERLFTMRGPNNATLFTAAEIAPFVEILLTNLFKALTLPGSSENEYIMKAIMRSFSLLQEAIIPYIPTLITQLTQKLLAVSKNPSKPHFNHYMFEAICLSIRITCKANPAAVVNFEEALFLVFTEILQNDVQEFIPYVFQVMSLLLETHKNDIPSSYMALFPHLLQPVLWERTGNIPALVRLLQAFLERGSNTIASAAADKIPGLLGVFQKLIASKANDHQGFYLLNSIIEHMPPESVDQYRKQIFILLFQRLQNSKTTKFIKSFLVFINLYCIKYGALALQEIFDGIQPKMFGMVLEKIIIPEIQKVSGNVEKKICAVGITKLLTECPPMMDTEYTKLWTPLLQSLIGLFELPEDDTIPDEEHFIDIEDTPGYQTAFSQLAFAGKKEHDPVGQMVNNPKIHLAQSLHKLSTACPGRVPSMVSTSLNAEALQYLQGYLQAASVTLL
UniProt P16220: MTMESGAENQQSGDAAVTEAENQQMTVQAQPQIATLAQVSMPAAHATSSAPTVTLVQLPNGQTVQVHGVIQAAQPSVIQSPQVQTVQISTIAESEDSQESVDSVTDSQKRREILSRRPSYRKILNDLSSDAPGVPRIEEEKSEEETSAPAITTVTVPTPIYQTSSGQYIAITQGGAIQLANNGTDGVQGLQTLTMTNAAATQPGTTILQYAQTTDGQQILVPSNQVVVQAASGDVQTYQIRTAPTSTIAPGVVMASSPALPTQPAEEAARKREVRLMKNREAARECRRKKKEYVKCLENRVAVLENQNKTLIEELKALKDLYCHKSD
UniProt O43310: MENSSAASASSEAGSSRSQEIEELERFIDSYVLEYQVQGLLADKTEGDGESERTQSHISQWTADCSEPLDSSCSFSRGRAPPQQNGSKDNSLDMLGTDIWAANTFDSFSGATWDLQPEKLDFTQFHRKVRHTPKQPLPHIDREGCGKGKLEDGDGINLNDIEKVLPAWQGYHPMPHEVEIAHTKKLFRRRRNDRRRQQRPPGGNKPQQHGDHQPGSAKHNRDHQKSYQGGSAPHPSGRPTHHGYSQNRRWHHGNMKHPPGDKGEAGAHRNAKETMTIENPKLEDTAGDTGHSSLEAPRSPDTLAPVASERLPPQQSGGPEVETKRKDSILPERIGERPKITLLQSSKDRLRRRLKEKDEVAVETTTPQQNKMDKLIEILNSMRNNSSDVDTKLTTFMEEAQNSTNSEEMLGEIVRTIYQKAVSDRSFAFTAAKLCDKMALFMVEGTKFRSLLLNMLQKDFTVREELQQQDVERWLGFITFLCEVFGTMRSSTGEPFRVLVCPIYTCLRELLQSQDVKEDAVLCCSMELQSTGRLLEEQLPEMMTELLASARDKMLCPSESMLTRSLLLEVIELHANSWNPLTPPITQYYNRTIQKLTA
UniProt P01034: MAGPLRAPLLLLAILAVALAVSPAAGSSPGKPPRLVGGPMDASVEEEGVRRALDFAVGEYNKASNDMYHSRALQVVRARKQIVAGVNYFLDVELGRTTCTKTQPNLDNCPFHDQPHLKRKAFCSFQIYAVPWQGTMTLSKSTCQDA
UniProt O75390: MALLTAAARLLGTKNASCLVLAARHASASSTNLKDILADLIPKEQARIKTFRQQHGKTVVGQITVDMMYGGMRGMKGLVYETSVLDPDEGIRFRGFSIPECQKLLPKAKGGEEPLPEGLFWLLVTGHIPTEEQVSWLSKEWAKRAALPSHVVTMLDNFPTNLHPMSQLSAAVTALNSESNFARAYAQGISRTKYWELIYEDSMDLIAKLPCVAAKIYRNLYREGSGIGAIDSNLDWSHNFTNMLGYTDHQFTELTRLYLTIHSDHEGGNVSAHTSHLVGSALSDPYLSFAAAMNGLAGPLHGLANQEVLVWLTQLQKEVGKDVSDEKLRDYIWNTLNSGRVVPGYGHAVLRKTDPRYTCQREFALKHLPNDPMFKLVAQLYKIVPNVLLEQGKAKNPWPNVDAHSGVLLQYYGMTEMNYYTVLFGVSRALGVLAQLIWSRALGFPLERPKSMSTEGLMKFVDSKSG
UniProt P68400, whole entry, looked up: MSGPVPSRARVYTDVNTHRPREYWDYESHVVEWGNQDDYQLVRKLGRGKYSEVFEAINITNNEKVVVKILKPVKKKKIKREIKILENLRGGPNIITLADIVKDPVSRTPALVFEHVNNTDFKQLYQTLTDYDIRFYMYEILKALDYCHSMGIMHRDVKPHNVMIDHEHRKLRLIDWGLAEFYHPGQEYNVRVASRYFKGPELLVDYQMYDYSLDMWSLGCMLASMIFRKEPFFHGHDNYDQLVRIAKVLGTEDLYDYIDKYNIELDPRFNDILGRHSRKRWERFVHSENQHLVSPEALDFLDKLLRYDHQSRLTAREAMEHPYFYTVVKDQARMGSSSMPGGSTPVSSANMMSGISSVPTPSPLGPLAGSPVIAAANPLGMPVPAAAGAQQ
UniProt Q7Z7A3: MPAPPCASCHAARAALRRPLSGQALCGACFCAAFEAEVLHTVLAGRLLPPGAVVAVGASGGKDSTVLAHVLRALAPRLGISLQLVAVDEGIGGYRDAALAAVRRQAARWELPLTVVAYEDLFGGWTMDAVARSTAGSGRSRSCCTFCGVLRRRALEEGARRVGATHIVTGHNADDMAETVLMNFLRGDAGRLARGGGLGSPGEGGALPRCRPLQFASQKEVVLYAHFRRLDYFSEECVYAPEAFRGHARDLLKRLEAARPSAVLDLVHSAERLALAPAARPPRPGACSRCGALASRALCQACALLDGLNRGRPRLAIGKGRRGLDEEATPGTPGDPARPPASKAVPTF
UniProt Q8TB03: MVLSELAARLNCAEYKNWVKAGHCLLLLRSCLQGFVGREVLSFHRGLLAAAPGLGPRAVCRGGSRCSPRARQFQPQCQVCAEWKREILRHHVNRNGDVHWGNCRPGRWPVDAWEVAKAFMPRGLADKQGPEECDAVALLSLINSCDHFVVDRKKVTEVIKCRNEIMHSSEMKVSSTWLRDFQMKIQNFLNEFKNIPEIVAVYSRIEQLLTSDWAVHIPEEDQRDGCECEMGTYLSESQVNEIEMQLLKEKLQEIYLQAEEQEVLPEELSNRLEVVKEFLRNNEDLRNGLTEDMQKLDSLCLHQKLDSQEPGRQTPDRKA
UniProt Q8WUE5: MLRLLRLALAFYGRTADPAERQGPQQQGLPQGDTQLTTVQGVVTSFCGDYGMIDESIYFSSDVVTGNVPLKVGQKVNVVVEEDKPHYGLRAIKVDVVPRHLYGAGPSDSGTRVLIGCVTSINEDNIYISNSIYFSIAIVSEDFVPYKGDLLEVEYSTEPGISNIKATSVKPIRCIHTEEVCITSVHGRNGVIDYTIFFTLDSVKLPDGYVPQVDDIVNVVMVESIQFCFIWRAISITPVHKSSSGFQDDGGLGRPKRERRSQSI
UniProt P33240: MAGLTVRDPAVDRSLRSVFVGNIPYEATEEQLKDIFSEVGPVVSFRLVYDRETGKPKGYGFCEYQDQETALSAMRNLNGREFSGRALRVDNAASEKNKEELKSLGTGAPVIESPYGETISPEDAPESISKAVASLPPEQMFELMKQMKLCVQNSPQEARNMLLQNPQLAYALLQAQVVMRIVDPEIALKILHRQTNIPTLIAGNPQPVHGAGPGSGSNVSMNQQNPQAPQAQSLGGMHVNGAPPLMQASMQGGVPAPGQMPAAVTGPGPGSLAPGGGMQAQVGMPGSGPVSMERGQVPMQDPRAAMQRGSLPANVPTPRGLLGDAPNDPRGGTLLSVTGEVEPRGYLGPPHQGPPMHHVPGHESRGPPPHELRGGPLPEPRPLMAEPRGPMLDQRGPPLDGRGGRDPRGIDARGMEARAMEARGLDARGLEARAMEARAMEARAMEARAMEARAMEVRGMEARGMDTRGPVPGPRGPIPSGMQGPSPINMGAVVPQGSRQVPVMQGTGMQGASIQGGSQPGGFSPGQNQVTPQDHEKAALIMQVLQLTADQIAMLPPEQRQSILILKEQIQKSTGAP

Tubastatin A = compound: CN1CCc2c(c3ccccc3n2Cc2ccc(C(=O)NO)cc2)C1 [Tubastatin A]
How it was run: as §1

[1] = compound: CNC(=O)C1=CC=CC=C1NC2=NC(=NC=C2Cl)NC3=C(C=C(C=C3)N4CCOCC4)OC
How it was run: as §1

defactinib = compound: CNC(=O)c1ccc(Nc2ncc(C(F)(F)F)c(NCc3nccnc3N(C)S(C)(=O)=O)n2)cc1 [defactinib]
How it was run: as §1

[2] = compound: CNc1nc(-c2ccc3c(N)n[nH]c3c2)cc(N2C[C@@H](C(=O)NC3CCCCC3)CC[C@H]2C)n1
How it was run: as §1

encorafenib = compound: COC(=O)N[C@@H](C)CNc1nccc(-c2cn(C(C)C)nc2-c2cc(Cl)cc(NS(C)(=O)=O)c2F)n1 [encorafenib]
How it was run: as §1

[3] = compound: COC(=O)[C@H](CCSC)NC(=O)C1=C(C=C(C=C1)NC[C@H](CS)N)C2=CC=CC=C2
How it was run: as §1

alisertib = compound: COc1cc(Nc2ncc3c(n2)-c2ccc(Cl)cc2C(c2c(F)cccc2OC)=NC3)ccc1C(=O)O [alisertib]
How it was run: as §1

[4] = compound: COc1cc2nc(-c3cc(F)ccc3O)nc(N[C@@H]3CNC[C@H]3C(C)(C)O)c2cc1OC
How it was run: as §1

gefitinib = compound: COc1cc2ncnc(Nc3ccc(F)c(Cl)c3)c2cc1OCCCN1CCOCC1 [gefitinib]
How it was run: as §1

Target	log2 fold change (alvocidib)	log2 fold change (Tubastatin A)	log2 fold change [1]	log2 fold change (defactinib)	log2 fold change [2]	log2 fold change (encorafenib)	log2 fold change [3]	log2 fold change (alisertib)	log2 fold change [4]	log2 fold change (gefitinib)
CTSL (UniProt P07711)	inactive: -0.028	inactive: 0.035	inactive: 0.001	inactive: 0.039	inactive: 0.079	inactive: 0	inactive: -0.008	inactive: 0.008	inactive: -0.004	inactive: -0.008
CYB5R4 (UniProt Q7L1T6)	inactive: -0.048	inactive: -0.09	inactive: 0.019	inactive: -0.017	inactive: -0.023	inactive: 0.001	inactive: 0.049	inactive: 0.009	inactive: 0.014	inactive: 0.063
CWC22 (UniProt Q9HCG8)	inactive: 0.112	inactive: -0.035	inactive: 0	inactive: -0.026	inactive: -0.036	inactive: 0.046	inactive: 0.093	inactive: -0.065	inactive: -0.058	inactive: -0.028
CXorf56 (UniProt Q9H5V9)	inactive: -0.053	inactive: -0.021	inactive: 0.022	inactive: -0.077	inactive: 0.007	inactive: 0.055	inactive: -0.021	inactive: -0.043	inactive: -0.011	inactive: 0.023
CYP20A1 (UniProt Q6UW02)	inactive: -0.037	inactive: 0.057	inactive: -0.001	inactive: 0.019	inactive: -0.05	inactive: 0.002	inactive: 0.019	inactive: -0.008	inactive: 0.032	inactive: 0.031
CTSB (UniProt P07858)	inactive: 0.004	inactive: 0.001	inactive: -0.034	inactive: 0.023	inactive: -0.049	inactive: -0.025	inactive: 0.072	inactive: -0.029	inactive: 0.024	inactive: 0.001
CYC1 (UniProt P08574)	inactive: 0.034	inactive: -0.006	inactive: -0.002	inactive: 0.025	inactive: -0.084	inactive: 0.009	inactive: -0.063	inactive: 0.007	inactive: -0.058	inactive: -0.122
CUX1 isoform 3 (UniProt P39880)	inactive: -0.03	inactive: 0.003	inactive: 0.055	inactive: -0.006	inactive: 0.005	inactive: 0	inactive: 0	inactive: 0.067	inactive: -0.042	inactive: 0.014
CUL2 isoform 2 (UniProt Q13617)	inactive: 0.012	inactive: -0.016	inactive: 0.029	inactive: 0.012	inactive: -0.01	inactive: 0.004	inactive: 0.002	inactive: -0.016	inactive: -0.012	inactive: -0.016
CTPS2 (UniProt Q9NRF8)	inactive: -0.01	inactive: 0.015	inactive: -0.009	inactive: 0.01	inactive: -0.006	inactive: 0.01	inactive: -0.043	inactive: -0.017	inactive: 0.011	inactive: 0.011
CTSH (UniProt P09668)	inactive: 0	inactive: 0.069	inactive: 0.013	inactive: 0.042	inactive: 0.025	inactive: -0.003	inactive: -0.021	inactive: -0.029	inactive: -0.004	inactive: 0.005
CUSTOS (UniProt Q96C57)	inactive: -0.033	inactive: -0.016	inactive: 0.029	inactive: -0.002	inactive: 0.026	inactive: 0.06	inactive: -0.044	inactive: 0.037	inactive: 0.004	inactive: -0.01
CYBA (UniProt P13498)	inactive: 0.036	inactive: 0.018	inactive: 0.065	inactive: -0.071	inactive: 0.01	inactive: 0.037	inactive: -0.073	inactive: -0.071	inactive: -0.139	inactive: 0.04
CUL5 (UniProt Q93034)	inactive: -0.02	inactive: 0.007	inactive: -0.003	inactive: -0.005	inactive: -0.004	inactive: 0.01	inactive: -0.078	inactive: 0.004	inactive: 0.001	inactive: -0.015
CUTA isoform 2 (UniProt O60888)	inactive: 0.077	inactive: 0.007	inactive: 0.042	inactive: -0.12	inactive: 0.076	inactive: -0.014	inactive: -0.051	inactive: 0.054	inactive: -0.038	inactive: -0.118
CSE1L (UniProt P55060)	inactive: 0.002	inactive: -0.009	inactive: -0.002	inactive: -0.003	inactive: -0.002	inactive: -0.041	inactive: 0.017	inactive: -0.001	inactive: 0.021	inactive: -0.009
CSTF3 (UniProt Q12996)	inactive: 0.047	inactive: -0.07	inactive: 0.01	inactive: 0.012	inactive: -0.037	inactive: 0.003	inactive: 0.027	inactive: 0.002	inactive: -0.015	inactive: 0.003
CTSC (UniProt P53634)	inactive: -0.108	inactive: 0.024	inactive: -0.009	inactive: 0.019	inactive: 0.037	inactive: 0.019	inactive: -0.059	inactive: -0.019	inactive: 0.004	inactive: 0.024
CREB1 (UniProt P16220)	inactive: -0.032	inactive: 0.011	inactive: 0.011	inactive: -0.019	inactive: 0.01	inactive: -0.009	inactive: -0.033	inactive: -0.005	inactive: -0.004	inactive: 0.024
CUEDC2 (UniProt Q9H467)	inactive: 0.054	inactive: 0.036	inactive: 0.03	inactive: 0.055	inactive: 0.078	inactive: 0.006	inactive: -0.026	inactive: -0.019	inactive: -0.009	inactive: 0.019
CTIF isoform 2 (UniProt O43310)	inactive: -0.027	inactive: 0.019	inactive: 0.004	inactive: 0.023	inactive: 0.027	inactive: -0.01	inactive: -0.167	inactive: 0.068	inactive: -0.02	inactive: 0.016
CST3 (UniProt P01034)	inactive: -0.096	inactive: 0.151	inactive: -0.018	inactive: -0.042	inactive: -0.049	inactive: 0.04	inactive: -0.022	inactive: 0.046	inactive: 0.021	inactive: 0.025
CS (UniProt O75390)	inactive: 0.024	inactive: 0.02	inactive: -0.027	inactive: -0.029	inactive: -0.025	inactive: -0.059	inactive: 0.029	inactive: -0.005	inactive: -0.042	inactive: -0.013
CSTF1 (UniProt Q05048)	inactive: 0.008	inactive: -0.01	inactive: 0.006	inactive: -0.008	inactive: -0.064	inactive: 0.021	inactive: -0.079	inactive: 0.031	inactive: 0.004	inactive: 0.022
CSNK2A1 (UniProt P68400)	inactive: 0.077	inactive: 0.019	active: 0.337	inactive: 0.056	inactive: -0.002	inactive: -0.004	inactive: -0.005	inactive: 0.012	inactive: 0.112	inactive: -0.024
CTU1 (UniProt Q7Z7A3)	inactive: -0.02	inactive: -0.001	inactive: 0.01	inactive: 0.032	inactive: 0.025	inactive: -0.018	inactive: -0.005	inactive: 0.021	inactive: 0.028	inactive: -0.083
CXorf38 (UniProt Q8TB03)	inactive: 0	inactive: 0.039	inactive: 0.04	inactive: -0.012	inactive: -0.016	inactive: 0.02	inactive: -0.012	inactive: -0.021	inactive: -0.058	inactive: -0.056
CUL1 (UniProt Q13616)	inactive: -0.008	inactive: 0.008	inactive: 0.001	inactive: -0.019	inactive: 0.013	inactive: 0	inactive: -0.042	inactive: -0.01	inactive: 0.011	inactive: -0.038
CT55 (UniProt Q8WUE5)	inactive: -0.008	inactive: 0.006	inactive: -0.22	inactive: 0.039	inactive: 0.01	inactive: 0.142	inactive: -0.048	inactive: -0.025	inactive: 0.016	inactive: 0.072
CSTF2 (UniProt P33240)	inactive: -0.023	inactive: 0.011	inactive: 0.014	inactive: -0.016	inactive: 0.024	inactive: -0.009	inactive: -0.099	inactive: 0.03	inactive: 0.011	inactive: 0.008

In another format: entries from further up
Target | log2 fold change (alvocidib) | log2 fold change (Tubastatin A) | log2 fold change [1] | log2 fold change (defactinib) | log2 fold change [2] | log2 fold change (encorafenib) | log2 fold change [3] | log2 fold change (alisertib) | log2 fold change [4] | log2 fold change (gefitinib)
CYC1 (UniProt P08574) | inactive: 0.034 | inactive: -0.006 | inactive: -0.002 | inactive: 0.025 | inactive: -0.084 | inactive: 0.009 | inactive: -0.063 | inactive: 0.007 | inactive: -0.058 | inactive: -0.122
CTU1 (UniProt Q7Z7A3) | inactive: -0.02 | inactive: -0.001 | inactive: 0.01 | inactive: 0.032 | inactive: 0.025 | inactive: -0.018 | inactive: -0.005 | inactive: 0.021 | inactive: 0.028 | inactive: -0.083
